Protein sequences, listed by entry. Tags and fused reporters are not part of them. Lines headed by an entry give the natural chain unless they say otherwise; changes in a name come on top. Chains listed by the source or under a name are the forms on record and can include a tag or linker.
C-X-C motif chemokine receptor 3 (CXCR3) (human (endogenous in HRMECs)) (P49682, form named): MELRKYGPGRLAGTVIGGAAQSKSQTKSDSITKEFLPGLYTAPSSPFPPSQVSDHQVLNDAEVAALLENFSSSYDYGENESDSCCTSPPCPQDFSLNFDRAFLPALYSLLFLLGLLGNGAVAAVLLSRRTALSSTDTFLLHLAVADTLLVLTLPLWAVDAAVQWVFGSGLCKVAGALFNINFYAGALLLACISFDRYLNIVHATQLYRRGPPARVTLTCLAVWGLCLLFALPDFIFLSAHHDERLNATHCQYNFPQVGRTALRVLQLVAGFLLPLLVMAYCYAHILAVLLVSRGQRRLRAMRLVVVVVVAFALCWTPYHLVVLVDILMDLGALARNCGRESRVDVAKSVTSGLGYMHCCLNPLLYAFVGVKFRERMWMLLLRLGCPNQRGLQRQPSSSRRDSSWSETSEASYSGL
UniProt P04792: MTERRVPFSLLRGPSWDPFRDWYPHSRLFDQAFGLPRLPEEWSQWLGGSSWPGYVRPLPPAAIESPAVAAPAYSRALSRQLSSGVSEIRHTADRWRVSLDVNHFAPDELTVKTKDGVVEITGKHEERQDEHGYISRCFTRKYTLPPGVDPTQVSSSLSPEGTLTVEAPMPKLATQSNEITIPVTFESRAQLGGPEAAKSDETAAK
UniProt P17174: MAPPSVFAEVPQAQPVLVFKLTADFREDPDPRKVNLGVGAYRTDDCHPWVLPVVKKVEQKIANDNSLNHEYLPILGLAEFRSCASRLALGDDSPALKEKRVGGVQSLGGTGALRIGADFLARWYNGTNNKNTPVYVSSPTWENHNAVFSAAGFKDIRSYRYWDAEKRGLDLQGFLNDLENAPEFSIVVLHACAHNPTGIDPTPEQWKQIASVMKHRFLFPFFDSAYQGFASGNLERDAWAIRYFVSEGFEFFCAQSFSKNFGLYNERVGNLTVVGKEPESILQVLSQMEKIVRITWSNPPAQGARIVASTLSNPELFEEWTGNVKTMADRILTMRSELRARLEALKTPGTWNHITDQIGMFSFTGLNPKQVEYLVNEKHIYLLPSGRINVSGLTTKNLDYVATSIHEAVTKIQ
UniProt Q15717: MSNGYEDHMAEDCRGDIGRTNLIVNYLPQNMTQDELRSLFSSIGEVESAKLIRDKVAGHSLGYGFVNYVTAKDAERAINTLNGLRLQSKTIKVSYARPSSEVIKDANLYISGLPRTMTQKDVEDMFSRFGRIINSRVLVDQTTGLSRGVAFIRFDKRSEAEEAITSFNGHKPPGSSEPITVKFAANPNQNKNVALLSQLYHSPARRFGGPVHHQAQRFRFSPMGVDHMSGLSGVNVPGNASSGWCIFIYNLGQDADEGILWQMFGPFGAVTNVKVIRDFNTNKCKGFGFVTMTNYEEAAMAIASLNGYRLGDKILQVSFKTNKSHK
UniProt P15090: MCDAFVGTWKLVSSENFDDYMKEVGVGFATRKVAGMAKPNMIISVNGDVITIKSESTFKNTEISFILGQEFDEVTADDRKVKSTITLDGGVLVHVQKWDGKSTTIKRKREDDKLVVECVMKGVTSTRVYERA

In PMC11934774:

target: C-X-C motif chemokine receptor 3 (CXCR3) (human (endogenous in HRMECs)) (UniProt P49682); assay: affinity purification with mass spectrometry; CoIP with an anti-CXCR3 antibody from NP-40 lysate of normal HRMECs, control IgG in parallel, overnight at 4 °C, agarose beads, washed with precooled PBS; tryptic digest, LC-MS/MS (Orbitrap Exploris 480), Homo sapiens database

| binding | Molecule |
| --- | --- |
| binds | heat shock protein beta-1 (HSPB1) (from UniProt P04792 1-205) |
| binds | Glutamic-Oxaloacetic Transaminase (GOT1) (from UniProt P17174 1-413) |
| binds | ELAV Like RNA Binding Protein 1 (ELAVL1) (from UniProt Q15717 1-326) |
| binds | Fatty acid binding protein 4 (FABP4) (from UniProt P15090 1-132) |
| binds | Valosin containing protein (VCP) (from UniProt P55072 1-806) |
| binds | phosphatase 1, regulatory (inhibitor) subunit 13 (PPP1R13L) (protein, UniProt Q8WUF5 1-828) MDSEAFQSARDFLDMNFQSLAMKHMDLKQMELDTAAAKVDELTKQLESLWSDSPAPPGPQAGPPSRPPRYSSSSIPEPFGSRGSPRKAATDGADTPFGRSESAPTLHPYSPLSPKGRPSSPRTPLYLQPDAYGSLDRATSPRPRAFDGAGSSLGRAPSPRPGPGPLRQQGPPTPFDFLGRAGSPRGSPLAEGPQAFFPERGPSPRPPATAYDAPASAFGSSLLGSGGSAFAPPLRAQDDLTLRRRPPKAWNESDLDVAYEKKPSQTASYERLDVFARPASPSLQLLPWRESSLDGLGGTGKDNLTSATLPRNYKVSPLASDRRSDAGSYRRSLGSAGPSGTLPRSWQPVSRIPMPPSSPQPRGAPRQRPIPLSMIFKLQNAFWEHGASRAMLPGSPLFTRAPPPKLQPQPQPQPQPQSQPQPQLPPQPQTQPQTPTPAPQHPQQTWPPVNEGPPKPPTELEPEPEIEGLLTPVLEAGDVDEGPVARPLSPTRLQPALPPEAQSVPELEEVARVLAEIPRPLKRRGSMEQAPAVALPPTHKKQYQQIISRLFHRHGGPGPGGPEPELSPITEGSEARAGPPAPAPPAPIPPPAPSQSSPPEQPQSMEMRSVLRKAGSPRKARRARLNPLVLLLDAALTGELEVVQQAVKEMNDPSQPNEEGITALHNAICGANYSIVDFLITAGANVNSPDSHGWTPLHCAASCNDTVICMALVQHGAAIFATTLSDGATAFEKCDPYREGYADCATYLADVEQSMGLMNSGAVYALWDYSAEFGDELSFREGESVTVLRRDGPEETDWWWAALHGQEGYVPRNYFGLFPRVKPQRSKV |
| binds | Isocitrate Dehydrogenase 2 (IDH2) (protein, UniProt P48735 40-452) ADKRIKVAKPVVEMDGDEMTRIIWQFIKEKLILPHVDIQLKYFDLGLPNRDQTDDQVTIDSALATQKYSVAVKCATITPDEARVEEFKLKKMWKSPNGTIRNILGGTVFREPIICKNIPRLVPGWTKPITIGRHAHGDQYKATDFVADRAGTFKMVFTPKDGSGVKEWEVYNFPAGGVGMGMYNTDESISGFAHSCFQYAIQKKWPLYMSTKNTILKAYDGRFKDIFQEIFDKHYKTDFDKNKIWYEHRLIDDMVAQVLKSSGGFVWACKNYDGDVQSDILAQGFGSLGLMTSVLVCPDGKTIEAEAAHGTVTRHYREHQKGRPTSTNPIASIFAWTRGLEHRGKLDGNQDLIRFAQMLEKVCVETVESGAMTKDLAGCIHGLSNVKLNEHFLNTTDFLDTIKSNLDRALGRQ |
| binds | Catalase (CAT) (protein, UniProt P04040 1-527) MADSRDPASDQMQHWKEQRAAQKADVLTTGAGNPVGDKLNVITVGPRGPLLVQDVVFTDEMAHFDRERIPERVVHAKGAGAFGYFEVTHDITKYSKAKVFEHIGKKTPIAVRFSTVAGESGSADTVRDPRGFAVKFYTEDGNWDLVGNNTPIFFIRDPILFPSFIHSQKRNPQTHLKDPDMVWDFWSLRPESLHQVSFLFSDRGIPDGHRHMNGYGSHTFKLVNANGEAVYCKFHYKTDQGIKNLSVEDAARLSQEDPDYGIRDLFNAIATGKYPSWTFYIQVMTFNQAETFPFNPFDLTKVWPHKDYPLIPVGKLVLNRNPVNYFAEVEQIAFDPSNMPPGIEASPDKMLQGRLFAYPDTHRHRLGPNYLHIPVNCPYRARVANYQRDGPMCMQDNQGGAPNYYPNSFGAPEQQPSALEHSIQYSGEVRRFNTANDDNVTQVRAFYVNVLNEEQRKRLCENIAGHLKDAQIFIQKKAVKNFTEVHPDYGSHIQALLDKYNAEKPKNAIHTFVQSGSHLAAREKANL |
| binds | Arachidonate 12-Lipoxygenase, 12R Type (ALOX12B) (protein, UniProt O75342 1-701) MATYKVRVATGTDLLSGTRDSISLTIVGTQGESHKQLLNHFGRDFATGAVGQYTVQCPQDLGELIIIRLHKERYAFFPKDPWYCNYVQICAPNGRIYHFPAYQWMDGYETLALREATGKTTADDSLPVLLEHRKEEIRAKQDFYHWRVFLPGLPSYVHIPSYRPPVRRHRNPNRPEWNGYIPGFPILINFKATKFLNLNLRYSFLKTASFFVRLGPMALAFKVRGLLDCKHSWKRLKDIRKIFPGKKSVVSEYVAEHWAEDTFFGYQYLNGVNPGLIRRCTRIPDKFPVTDDMVAPFLGEGTCLQAELEKGNIYLADYRIMEGIPTVELSGRKQHHCAPLCLLHFGPEGKMMPIAIQLSQTPGPDCPIFLPSDSEWDWLLAKTWVRYAEFYSHEAIAHLLETHLIAEAFCLALLRNLPMCHPLYKLLIPHTRYTVQINSIGRAVLLNEGGLSAKGMSLGVEGFAGVMVRALSELTYDSLYLPNDFVERGVQDLPGYYYRDDSLAVWNALEKYVTEIITYYYPSDAAVEGDPELQSWVQEIFKECLLGRESSGFPRCLRTVPELIRYVTIVIYTCSAKHAAVNTGQMEFTAWMPNFPASMRNPPIQTKGLTTLETFMDTLPDVKTTCITLLVLWTLSREPDDRRPLGHFPDIHFVEEAPRRSIEAFRQRLNQISHDIRQRNKCLPIPYYYLDPVLIENSISI |
| binds | thioredoxin-1 (TXN) (protein, UniProt P10599-1 1-105) MVKQIESKTAFQEALDAAGDKLVVVDFSATWCGPCKMIKPFFHSLSEKYSNVIFLEVDVDDCQDVASECEVKCMPTFQFFKKGQKVGEFSGANKEKLEATINELV |
| binds | Peroxiredoxin-1 (PRDX1) (protein, UniProt Q06830 1-199) MSSGNAKIGHPAPNFKATAVMPDGQFKDISLSDYKGKYVVFFFYPLDFTFVCPTEIIAFSDRAEEFKKLNCQVIGASVDSHFCHLAWVNTPKKQGGLGPMNIPLVSDPKRTIAQDYGVLKADEGISFRGLFIIDDKGILRQITVNDLPVGRSVDETLRLVQAFQFTDKHGEVCPAGWKPGSDTIKPDVQKSKEYFSKQK |

Results are given in words; binding and its absence hold for the method and conditions named. Binding seen in cells or lysates may run through a third protein. A yes stands for co-enrichment or nearness to the bait. Other partners may have been found.
